Assay results from publication PMC12058244 (Chemmedchem, 2025).
Square brackets hold non-standard residues; d marks the D form. * marks the point of attachment. Fmoc = O=C(OCC1c2ccccc2-c2ccccc21)*; Boc = CC(C)(C)OC(=O)*; OtBu = CC(C)(C)O*; βAla = NCCC(=O)O; tBu = CC(C)(C)*

Test: general procedure: Fmoc solid-phase peptide synthesis; Fmoc-Leu-Wang (0.7 mmol/g); Fmoc-TMSAla-2-CTC (0.8 mmol/g); Fmoc-Leu Rink amide (0.4208 mmol/g); Fmoc-Pro-2-CTC (0.68 mm); HATU/DIPEA

Substance	step yield (coupling step) [%]	step yield (late stage modification step) [%]
Fmoc-E(OMe)[βAla]K(Boc)K(Boc)PY(tBu)IL-OtBu	31	–
Fmoc-E[βAla]K(Boc)K(Boc)PY(tBu)IL-OtBu	–	52
